From paper PMC11187126, “Structure and dynamics of the pyroglutamylated RF-amide peptide QRFP receptor GPR103” (Nature Communications, 2024)
Substitutions are numbered along the chain they refer to. Further values from the same series stand in other lists. No end group written: not given here.

How the values were obtained:
Format in all cases: cell-based
[1] = target: T1, GPR103 Q184^4.64A (Homo sapiens, UniProt Q96P65, Q184A); test: TGFα shedding assay; Exp. level WT (1:5)
T1 construct: we used human full-length QRFPR-encoding plasmids; expressed in transfected cells; host or cells: HEK293 cells, pCAGGS vector
T1 sequence (Q96P65 1-431 Q184A): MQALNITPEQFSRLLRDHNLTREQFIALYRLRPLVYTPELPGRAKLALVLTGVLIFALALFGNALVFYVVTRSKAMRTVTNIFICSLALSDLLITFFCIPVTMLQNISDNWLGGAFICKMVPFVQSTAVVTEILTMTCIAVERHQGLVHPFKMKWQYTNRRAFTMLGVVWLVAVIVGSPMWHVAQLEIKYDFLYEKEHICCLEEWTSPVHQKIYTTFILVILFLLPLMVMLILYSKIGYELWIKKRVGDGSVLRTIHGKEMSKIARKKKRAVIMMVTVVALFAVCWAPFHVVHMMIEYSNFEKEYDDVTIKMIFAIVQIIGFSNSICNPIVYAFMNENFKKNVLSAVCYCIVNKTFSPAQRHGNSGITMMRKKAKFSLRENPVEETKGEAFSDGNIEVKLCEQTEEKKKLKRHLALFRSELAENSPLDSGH
Procedure: (§1) For the TGFα shedding assay and the flow cytometry analysis, we used human full-length QRFPR-encoding plasmids. Specifically, GPR103 was N-terminally modified with an HA signal sequence followed by a FLAG epitope and then a flexible linker ([…]; the FLAG epitope is underlined) and inserted into the pCAGGS vector. Plasmid encoding GPR103 mutants were generated using Quickchange Site-Directed Mutagensis kit (Agilent).
(§2) The TGFα shedding assay was performed as described previously with minor modifications. Plasmid transfection was performed in a 6-well plate with a mixture of 500 ng (per well in a 6-well plate) AP-TGFα-encoding plasmid and 200 ng GPR103-encoding plasmid. After 1-day culture, the transfected cells were harvested by trypsinization, pelleted by centrifugation at 190 × g for 5 min, and washed once with 5 mM HEPES (pH 7.4)-containing Hank’s Balanced Salt Solution (HBSS). After centrifugation, the cells were resuspended in 8 mL of the HEPES-containing HBSS. The cell suspension was seeded in a 96-well culture plate (cell plate) at a volume of 90 μL (per well hereafter) and incubated in a 37 °C incubator with 5% CO2 for 30 min. […] After spinning the cell plates at 190 × g for 2 min, 80 μL of conditioned media was transferred to an empty 96-well plate (conditioned media (CM) plate). […] Absorbance at 405 nm of the plates was measured using a microplate reader (SpectraMax 340 PC384, Molecular Devices) before and after 1-h incubation at room temperature. Ligand-induced AP-TGFα release was calculated by subtracting spontaneous AP-TGFα release signal from ligand-induced AP-TGFα release signal. […]
(§3) mutants. Data are presented as mean values ± SEM, normally n=3-5; dots), each performed in triplicate. b-d Cell-surface expression (b) and QRFP26-in-duced activation of GPR103 (c, d) were analyzed by the flow cytometry and the TGFα shedding assay, respectively. From the concentration–response curves (a), Emax (c) and ΔpEC50 (d) values relative to the wild type were calculated. […]

[2] = target: T2, GPR103 I26N-termA (Homo sapiens, UniProt Q96P65, I26A); test: TGFα shedding assay; Exp. level WT (1:20)
T2 construct: we used human full-length QRFPR-encoding plasmids; expressed in transfected cells; host or cells: HEK293 cells, pCAGGS vector
T2 sequence (Q96P65 1-431 I26A): T1 sequence (Q96P65 1-431 Q184A) with I26A, A184Q
Procedure: as §1, §2, §3

[3] = target: T3, GPR103 C98^2.57A (Homo sapiens, UniProt Q96P65, C98A); test: TGFα shedding assay; Exp. level WT (1:50)
T3 construct: we used human full-length QRFPR-encoding plasmids; expressed in transfected cells; host or cells: HEK293 cells, pCAGGS vector
T3 sequence (Q96P65 1-431 C98A): T1 sequence (Q96P65 1-431 Q184A) with C98A, A184Q
Procedure: as §1, §2, §3

[4] = target: T4, wild-type GPR103 (Homo sapiens, UniProt Q96P65); test: TGFα shedding assay, HEK293 cells; WT titrated to lower expression (1:1 to 1:50); conditions: WT (1:20)
T4 construct: we used human full-length QRFPR-encoding plasmids; expressed in transfected cells; host or cells: HEK293 cells, pCAGGS vector
T4 sequence (Q96P65 1-431): T1 sequence (Q96P65 1-431 Q184A) with A184Q
Procedure: as §1
The TGFα shedding assay was performed as described previously with minor modifications. Plasmid transfection was performed in a 6-well plate with a mixture of 500 ng (per well in a 6-well plate) AP-TGFα-encoding plasmid and 200 ng GPR103-encoding plasmid. […] Absorbance at 405 nm of the plates was measured using a microplate reader (SpectraMax 340 PC384, Molecular Devices) before and after 1-h incubation at room temperature. Ligand-induced AP-TGFα release was calculated by subtracting spontaneous AP-TGFα release signal from ligand-induced AP-TGFα release signal. […]
as §3

TSGPLGNLAEELNGYSRKKGGFSFRF-NH2 [QRFP26]
Emax ([1]; Exp. #1): 102.80 % WT | Emax ([1]; Exp. #2): 94.40 % WT | Emax ([1]; Exp. #3): 102.08 % WT | Emax ([2]; Exp. #1): 99.84 % WT | Emax ([2]; Exp. #2): 82.98 % WT | Emax ([2]; Exp. #3): 102.40 % WT | Emax ([3]; Exp. #1): 92.54 % WT | Emax ([3]; Exp. #2): 77.71 % WT | Emax ([3]; Exp. #3): 87.63 % WT | Emax ([4]; Exp. #4): 67.26 % WT | Emax ([4]; Exp. #5): 61.58 % WT
